# Experimental data: patent US10077293B2, “Antimicrobial peptide analogues derived from abalone (Haliotis discus) and antimicrobial pharmaceutical composition containing the same” (priority 2016, dated 2018)
# Part of at least one peptide drawing is inferred or uncertain, most often the ends. Ends that are not written are not given here.
# Experiments:
# Assay in all cases: Ultrasensitive radial diffusion assay (URDA), antimicrobial activity
# Format in all cases: cell-based
# E. coli D31 = conditions: E. coli D31, Gram −
# Procedure: (§1) Four species of Gram positive bacteria (Bacillus subtilis, Staphylococcus epidermidis, […] and Propionibacterium acnes), five species of Gram negative bacteria (E. coli D31, E. coli ML35p, Shigella flexneri, Pseudomonas aeruginosa and Vibrio parahaemolyticus) and one yeast species (Candida albicans) were used for experiments. The antimicrobial activity was measured by ultrasensitive radial diffusion assay (URDA) using two layers of media of different concentrations. First, the microorganisms were pre-cultured in each medium for 18 hours and the concentration of the microorganisms was adjusted to 84% T (≈1×10^8 CFU/mL) using a colorimeter (Product No. 52-1210, BioMerieux, Inc., USA). Then, 0.5 mL of the diluted microorganism solution was added to an underlay gel containing 9.5 mL of 0.03% TSB, 1% type I agarose and 10 mM phosphate buffer (PB; pH 6.5) and plated and solidified on a plate after mixing well. After boring a well with a diameter of 2.5 mm on the solidified plate using a punch, 5 μL of each analogue solution was introduced. All the analogues were dissolved in 5 μL of 0.01% acetic acid to avoid any effect of solvent. After the analogue permeated into the medium, the microorganisms were cultured for 3 hours and an overlay gel containing 10 mL of 6% TSB, 1% type I agarose and 10 mM phosphate buffer (pH 6.5) was poured and solidified. Then, the microorganisms were cultured again for 18 hours at the same temperature. Next day, the antimicrobial activity was determined by measuring the size (diameter) of a clear zone formed around the well. Piscidin 1, an antimicrobial peptide derived from the mast cells of a hybrid striped bass, was used as a control.
# E. coli ML35p = conditions: Gram −
# Procedure: as §1
# [1] = system: Shigella flexneri KCTC2009; conditions: Shigella flexneri KCTC2009, Gram −
# Procedure: as §1
Sequence,Minimal effective concentration (E. coli D31),Minimal effective concentration (E. coli ML35p),Minimal effective concentration [1]
"LLWKLLKKL [SEQ ID NO 4, LLWKLLKKL]",13.5 µg/mL,8.4 µg/mL,8.7 µg/mL
"KWLLKLLKKL [SEQ ID NO 10, KWLLKLLKKL]",12.2 µg/mL,9.9 µg/mL,8.7 µg/mL
